According to the supplement of paper PMC10849652:
The list shows a part of the results.

Sequences of proteins named here, by UniProt entry; tags and fusion partners are left off. A change or cut given only in a name is not applied to a line headed by its entry.
UniProt P16930: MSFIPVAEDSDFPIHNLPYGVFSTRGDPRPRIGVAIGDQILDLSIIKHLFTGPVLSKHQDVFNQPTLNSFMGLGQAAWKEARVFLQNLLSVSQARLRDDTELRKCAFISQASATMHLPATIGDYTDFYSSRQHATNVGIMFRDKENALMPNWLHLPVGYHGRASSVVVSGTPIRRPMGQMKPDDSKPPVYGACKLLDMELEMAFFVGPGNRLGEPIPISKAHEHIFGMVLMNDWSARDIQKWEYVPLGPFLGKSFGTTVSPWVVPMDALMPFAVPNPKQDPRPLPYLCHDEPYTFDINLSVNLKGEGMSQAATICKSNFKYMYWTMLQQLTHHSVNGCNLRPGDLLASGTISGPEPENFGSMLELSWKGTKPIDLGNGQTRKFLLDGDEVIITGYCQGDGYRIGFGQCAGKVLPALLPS
UniProt Q01469, whole entry, looked up: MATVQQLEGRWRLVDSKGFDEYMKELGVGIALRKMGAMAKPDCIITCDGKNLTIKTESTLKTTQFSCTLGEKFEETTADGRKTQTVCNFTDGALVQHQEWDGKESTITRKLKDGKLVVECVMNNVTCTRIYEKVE
UniProt Q92889: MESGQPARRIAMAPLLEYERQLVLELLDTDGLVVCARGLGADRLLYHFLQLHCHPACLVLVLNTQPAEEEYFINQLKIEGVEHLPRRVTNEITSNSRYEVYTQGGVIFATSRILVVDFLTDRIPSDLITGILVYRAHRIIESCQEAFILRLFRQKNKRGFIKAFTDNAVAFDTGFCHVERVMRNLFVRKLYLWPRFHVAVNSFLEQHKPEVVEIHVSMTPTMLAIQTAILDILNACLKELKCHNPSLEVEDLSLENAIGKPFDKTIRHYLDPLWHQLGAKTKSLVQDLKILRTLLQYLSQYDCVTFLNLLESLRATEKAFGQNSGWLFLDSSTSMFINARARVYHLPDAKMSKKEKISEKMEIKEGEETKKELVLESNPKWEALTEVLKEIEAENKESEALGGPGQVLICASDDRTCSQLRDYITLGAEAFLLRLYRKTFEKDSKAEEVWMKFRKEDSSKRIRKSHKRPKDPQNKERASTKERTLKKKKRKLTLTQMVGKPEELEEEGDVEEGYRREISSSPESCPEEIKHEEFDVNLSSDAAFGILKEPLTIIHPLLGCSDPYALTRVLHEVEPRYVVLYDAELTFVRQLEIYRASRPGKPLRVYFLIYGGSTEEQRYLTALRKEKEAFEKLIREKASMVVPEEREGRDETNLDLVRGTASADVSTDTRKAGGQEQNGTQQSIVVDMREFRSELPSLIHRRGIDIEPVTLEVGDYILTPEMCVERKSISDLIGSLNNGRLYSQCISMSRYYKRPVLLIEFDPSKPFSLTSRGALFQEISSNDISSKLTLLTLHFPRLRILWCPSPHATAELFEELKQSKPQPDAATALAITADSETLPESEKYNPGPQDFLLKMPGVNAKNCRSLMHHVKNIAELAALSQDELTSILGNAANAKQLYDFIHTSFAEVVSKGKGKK
UniProt Q9NQT4, whole entry, looked up: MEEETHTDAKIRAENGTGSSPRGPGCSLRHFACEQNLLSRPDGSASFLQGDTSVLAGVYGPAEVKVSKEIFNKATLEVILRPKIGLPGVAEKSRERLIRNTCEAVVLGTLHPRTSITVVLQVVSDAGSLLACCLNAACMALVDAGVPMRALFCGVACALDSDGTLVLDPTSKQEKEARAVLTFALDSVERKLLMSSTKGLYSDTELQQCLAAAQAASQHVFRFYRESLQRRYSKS
UniProt Q9BPY3: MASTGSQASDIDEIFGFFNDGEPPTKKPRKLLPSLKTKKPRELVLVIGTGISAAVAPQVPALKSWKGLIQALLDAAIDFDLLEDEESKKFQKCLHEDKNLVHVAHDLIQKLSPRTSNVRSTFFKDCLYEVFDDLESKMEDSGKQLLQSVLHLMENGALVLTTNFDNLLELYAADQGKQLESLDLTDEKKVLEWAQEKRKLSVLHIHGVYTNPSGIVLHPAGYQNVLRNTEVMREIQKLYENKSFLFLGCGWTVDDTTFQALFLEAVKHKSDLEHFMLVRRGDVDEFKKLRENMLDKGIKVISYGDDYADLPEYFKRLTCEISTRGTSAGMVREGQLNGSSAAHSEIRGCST
UniProt P16422: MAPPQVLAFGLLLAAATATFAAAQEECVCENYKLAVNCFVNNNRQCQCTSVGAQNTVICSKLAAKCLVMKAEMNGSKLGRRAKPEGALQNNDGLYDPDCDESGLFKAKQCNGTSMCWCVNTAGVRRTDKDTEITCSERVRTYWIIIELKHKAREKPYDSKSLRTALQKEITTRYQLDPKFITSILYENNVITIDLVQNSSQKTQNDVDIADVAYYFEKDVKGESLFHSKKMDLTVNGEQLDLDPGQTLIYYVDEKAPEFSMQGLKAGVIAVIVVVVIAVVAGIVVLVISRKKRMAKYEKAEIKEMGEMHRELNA
UniProt Q96DZ1: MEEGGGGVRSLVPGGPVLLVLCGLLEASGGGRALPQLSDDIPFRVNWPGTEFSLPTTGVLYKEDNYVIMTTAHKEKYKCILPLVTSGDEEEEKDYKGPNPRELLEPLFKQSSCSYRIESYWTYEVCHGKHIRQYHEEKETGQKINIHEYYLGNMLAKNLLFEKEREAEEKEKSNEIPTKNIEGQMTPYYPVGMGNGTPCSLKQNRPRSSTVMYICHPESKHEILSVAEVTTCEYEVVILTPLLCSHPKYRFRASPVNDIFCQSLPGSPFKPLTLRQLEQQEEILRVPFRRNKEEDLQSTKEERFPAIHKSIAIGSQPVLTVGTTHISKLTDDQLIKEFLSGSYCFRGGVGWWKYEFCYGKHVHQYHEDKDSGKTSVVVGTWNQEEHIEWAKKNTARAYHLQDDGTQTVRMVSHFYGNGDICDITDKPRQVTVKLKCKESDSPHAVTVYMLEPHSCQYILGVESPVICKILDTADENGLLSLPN
UniProt O94905: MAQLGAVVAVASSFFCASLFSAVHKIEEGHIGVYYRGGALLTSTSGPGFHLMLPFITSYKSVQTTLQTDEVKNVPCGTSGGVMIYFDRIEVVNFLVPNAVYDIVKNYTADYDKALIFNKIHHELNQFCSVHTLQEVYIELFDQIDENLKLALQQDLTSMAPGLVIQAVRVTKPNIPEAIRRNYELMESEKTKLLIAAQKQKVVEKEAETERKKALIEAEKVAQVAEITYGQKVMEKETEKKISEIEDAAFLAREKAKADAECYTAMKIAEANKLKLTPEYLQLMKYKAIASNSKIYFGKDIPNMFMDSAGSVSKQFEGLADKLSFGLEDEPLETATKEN
UniProt Q9UPT5: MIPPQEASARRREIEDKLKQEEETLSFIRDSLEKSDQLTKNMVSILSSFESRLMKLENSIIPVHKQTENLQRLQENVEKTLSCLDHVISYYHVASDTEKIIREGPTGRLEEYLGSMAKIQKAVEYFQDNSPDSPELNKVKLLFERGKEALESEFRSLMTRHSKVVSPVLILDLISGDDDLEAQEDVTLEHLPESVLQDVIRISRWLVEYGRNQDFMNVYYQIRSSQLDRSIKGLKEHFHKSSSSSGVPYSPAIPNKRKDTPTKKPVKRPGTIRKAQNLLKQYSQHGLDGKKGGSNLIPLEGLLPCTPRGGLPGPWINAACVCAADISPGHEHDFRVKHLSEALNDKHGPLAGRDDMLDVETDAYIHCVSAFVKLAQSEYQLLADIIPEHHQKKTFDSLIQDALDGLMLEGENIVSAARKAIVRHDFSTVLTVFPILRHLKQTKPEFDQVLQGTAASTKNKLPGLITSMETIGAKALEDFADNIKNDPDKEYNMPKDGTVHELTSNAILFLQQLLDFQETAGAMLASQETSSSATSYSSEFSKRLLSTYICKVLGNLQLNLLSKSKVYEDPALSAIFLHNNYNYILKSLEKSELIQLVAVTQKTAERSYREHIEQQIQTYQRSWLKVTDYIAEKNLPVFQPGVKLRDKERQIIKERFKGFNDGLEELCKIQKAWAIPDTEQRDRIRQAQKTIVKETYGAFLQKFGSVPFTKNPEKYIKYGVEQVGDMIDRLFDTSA
UniProt Q96DF8: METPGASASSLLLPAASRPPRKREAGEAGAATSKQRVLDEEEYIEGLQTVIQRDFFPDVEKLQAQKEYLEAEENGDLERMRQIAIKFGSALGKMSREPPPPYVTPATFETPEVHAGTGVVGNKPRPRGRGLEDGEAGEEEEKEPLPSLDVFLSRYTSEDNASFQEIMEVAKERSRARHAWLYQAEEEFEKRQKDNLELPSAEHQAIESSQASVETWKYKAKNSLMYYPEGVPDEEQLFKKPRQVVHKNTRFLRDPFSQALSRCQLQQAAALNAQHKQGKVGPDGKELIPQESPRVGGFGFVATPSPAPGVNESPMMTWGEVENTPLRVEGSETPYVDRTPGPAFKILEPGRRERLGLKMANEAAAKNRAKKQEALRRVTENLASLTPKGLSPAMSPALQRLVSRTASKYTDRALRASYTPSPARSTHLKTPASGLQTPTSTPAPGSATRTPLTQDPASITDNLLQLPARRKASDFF
UniProt Q9UBQ6: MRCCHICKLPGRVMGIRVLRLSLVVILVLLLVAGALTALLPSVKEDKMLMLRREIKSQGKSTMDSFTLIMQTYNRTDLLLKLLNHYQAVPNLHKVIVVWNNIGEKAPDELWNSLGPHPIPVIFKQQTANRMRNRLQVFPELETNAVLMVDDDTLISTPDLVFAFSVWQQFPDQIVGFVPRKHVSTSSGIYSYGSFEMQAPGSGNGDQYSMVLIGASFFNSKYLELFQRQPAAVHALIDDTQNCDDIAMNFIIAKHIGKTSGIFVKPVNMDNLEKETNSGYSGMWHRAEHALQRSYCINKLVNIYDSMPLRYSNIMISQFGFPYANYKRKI
UniProt Q9NRY5: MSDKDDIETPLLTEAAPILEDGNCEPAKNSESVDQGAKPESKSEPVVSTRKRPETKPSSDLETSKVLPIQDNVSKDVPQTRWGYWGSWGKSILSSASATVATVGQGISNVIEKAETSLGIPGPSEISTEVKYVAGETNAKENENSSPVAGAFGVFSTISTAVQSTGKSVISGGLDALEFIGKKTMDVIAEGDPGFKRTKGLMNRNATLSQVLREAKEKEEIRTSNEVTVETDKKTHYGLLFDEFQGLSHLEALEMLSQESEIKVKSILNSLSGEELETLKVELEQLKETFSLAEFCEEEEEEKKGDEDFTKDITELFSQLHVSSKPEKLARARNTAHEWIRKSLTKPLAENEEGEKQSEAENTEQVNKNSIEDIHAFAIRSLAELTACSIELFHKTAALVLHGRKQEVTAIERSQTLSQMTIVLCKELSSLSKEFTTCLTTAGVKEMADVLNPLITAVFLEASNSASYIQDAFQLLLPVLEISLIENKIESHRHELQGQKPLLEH
UniProt Q13216, whole entry, looked up: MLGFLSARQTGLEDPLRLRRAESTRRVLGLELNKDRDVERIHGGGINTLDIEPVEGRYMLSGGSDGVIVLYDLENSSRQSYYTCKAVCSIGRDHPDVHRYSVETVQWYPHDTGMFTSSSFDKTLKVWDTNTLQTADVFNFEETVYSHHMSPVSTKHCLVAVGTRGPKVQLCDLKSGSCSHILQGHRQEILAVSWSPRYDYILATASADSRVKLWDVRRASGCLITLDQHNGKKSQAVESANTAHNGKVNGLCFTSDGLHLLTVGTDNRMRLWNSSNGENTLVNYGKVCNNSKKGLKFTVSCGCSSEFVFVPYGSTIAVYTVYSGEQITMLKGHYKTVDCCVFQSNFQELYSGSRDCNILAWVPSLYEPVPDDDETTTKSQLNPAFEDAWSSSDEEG

How the values were obtained:
Test in all cases: log2 fold change, soluble protein after heating vs DMSO (PISA); higher = thermal stabilisation; K562 cells, 10 uM, 30 min; active = over 0.2 and 3.5 SD of the protein, either way, in both replicates (recomputed)
bafetinib = compound: Cc1ccc(NC(=O)c2ccc(CN3CC[C@H](N(C)C)C3)c(C(F)(F)F)c2)cc1Nc1nccc(-c2cncnc2)n1 [bafetinib]
Method in brief: (§1)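 Values are thermal stability changes relative to control samples and are taken from duplicates. They are stated as log2 fold changes. Before quantification by TMTpro 16plex LC-MS/MS with equalised channel sums, K562 cells at 2×10^6 cells/mL were treated with 10 μM compound for 30 min, heated in aliquots for 3 min across 48°C-58°C, pooled, extracted in PBS with 0.5% NP-40 at 4°C, and centrifuged at 21,000xg for 90 min to give the soluble supernatant.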

[1] = compound: Cc1cccc(CC(=O)N2CCc3c2ccc(-c2cn(C)c4ncnc(N)c24)c3F)n1
Method in brief: as §1

nilotinib = compound: Cc1cn(-c2cc(NC(=O)c3ccc(C)c(Nc4nccc(-c5cccnc5)n4)c3)cc(C(F)(F)F)c2)cn1 [nilotinib]
Method in brief: as §1

[2] = compound: Cc1nc(Nc2n[nH]c3c2CN(C(=O)N[C@H](CN(C)C)c2ccccc2)C3(C)C)c2sccc2n1
Method in brief: as §1

dasatinib = compound: Cc1nc(Nc2ncc(C(=O)Nc3c(C)cccc3Cl)s2)cc(N2CCN(CCO)CC2)n1 [dasatinib]
Method in brief: as §1

[3] = compound: Cc1ncc(-c2ccnc(Nc3ccc(S(C)(=O)=O)cc3)n2)n1C(C)C
Method in brief: as §1

[4] = compound: Cn1cc(-c2ccc3c(c2)CCN3C(=O)Cc2cccc(C(F)(F)F)c2)c2c(N)ncnc21
Method in brief: as §1

[5] = compound: Cn1cc(-c2ccc3nnc(C(F)(F)c4ccc5ncccc5c4)n3n2)cn1
Method in brief: as §1

tipifarnib = compound: Cn1cncc1[C@@](N)(c1ccc(Cl)cc1)c1ccc2c(c1)c(-c1cccc(Cl)c1)cc(=O)n2C [tipifarnib]
Method in brief: as §1

mubritinib = compound: FC(F)(F)c1ccc(/C=C/c2nc(COc3ccc(CCCCn4ccnn4)cc3)co2)cc1 [mubritinib]
Method in brief: as §1

[6] = compound: NC(=O)Nc1cc(-c2cccc(F)c2)sc1C(=O)N[C@H]1CCCNC1
Method in brief: as §1

[7] = compound: NC(=O)c1cnc(N[C@@H]2CCCC[C@@H]2N)nc1Nc1cccc(-n2nccn2)c1
Method in brief: as §1

[8] = compound: NC1(c2ccc(-c3nc4ccn5c(=O)[nH]nc5c4cc3-c3ccccc3)cc2)CCC1
Method in brief: as §1

[9] = compound: NCC(=O)Nc1ccc(-n2nc(C(F)(F)F)cc2-c2ccc3c(ccc4ccccc43)c2)cc1
Method in brief: as §1

entinostat = compound: Nc1ccccc1NC(=O)c1ccc(CNC(=O)OCc2cccnc2)cc1 [entinostat]
Method in brief: as §1

vorinostat = compound: O=C(CCCCCCC(=O)Nc1ccccc1)NO [vorinostat]
Method in brief: as §1

citarinostat = compound: O=C(CCCCCCNC(=O)c1cnc(N(c2ccccc2)c2ccccc2Cl)nc1)NO [citarinostat]
Method in brief: as §1

silmitasertib = compound: O=C(O)c1ccc2c(c1)nc(Nc1cccc(Cl)c1)c1ccncc12 [silmitasertib]
Method in brief: as §1

[10] = compound: O=C1NC(=O)C(c2cnc3ccccn23)=C1c1cn2c3c(cc(F)cc13)CN(C(=O)N1CCCCC1)CC2
Method in brief: as §1

[11] = compound: c1cc(OCCN2CCCCC2)cc(-c2n[nH]c3ccc(-c4nnc[nH]4)cc23)c1
Method in brief: as §1

Measured: log2 fold change

FAH isoform 2 (UniProt P16930)
inactive: bafetinib 0.082 | [1] -0.014 | nilotinib -0.02 | [2] 0.032 | dasatinib 0.118 | [3] -0.073 | [4] 0.03 | [5] 0.028 | tipifarnib -0.064 | mubritinib 0.058 | [6] -0.006 | [7] -0.128 | [8] -0.089 | [9] -0.193 | entinostat -0.02 | vorinostat -0.023 | citarinostat -0.091 | silmitasertib 0.074 | [10] 0.031 | [11] -0.06

FABP5 (UniProt Q01469)
inactive: bafetinib -0.085 | [1] -0.019 | nilotinib -0.011 | [2] -0.007 | dasatinib 0.025 | [3] -0.009 | [4] 0.027 | [5] -0.009 | tipifarnib -0.042 | mubritinib 0.029 | [6] 0.016 | [7] 0.125 | [8] 0.045 | [9] 0.23 | entinostat 0.005 | vorinostat -0.042 | citarinostat -0.012 | silmitasertib 0.009 | [10] -0.036 | [11] -0.001

FAM136A (UniProt Q96C01)
inactive: bafetinib -0.031 | [1] -0.022 | nilotinib -0.006 | [2] -0.003 | dasatinib 0.053 | [3] -0.002 | [4] 0.036 | [5] 0.057 | tipifarnib -0.022 | mubritinib -0.005 | [6] -0.014 | [7] 0.007 | [8] -0.028 | [9] -0.009 | entinostat 0.025 | vorinostat -0.023 | citarinostat 0.067 | silmitasertib 0.013 | [10] -0.022 | [11] 0.019

ERCC4 (UniProt Q92889)
inactive: bafetinib 0.076 | [1] -0.068 | nilotinib -0.325 | [2] 0.406 | dasatinib 0.128 | [3] 0.092 | [4] 0.057 | [5] -0.051 | tipifarnib -0.038 | mubritinib 0.059 | [6] -0.404 | [7] -0.092 | [8] -0.432 | [9] -0.316 | entinostat -0.039 | vorinostat -0.218 | citarinostat 0.004 | silmitasertib 0.07 | [10] -0.144 | [11] -0.194

EXOSC5 (UniProt Q9NQT4)
inactive: bafetinib 0.012 | [1] -0.08 | nilotinib 0.007 | [2] 0.037 | dasatinib 0.016 | [3] -0.013 | [4] 0.014 | [5] -0.015 | tipifarnib -0.01 | mubritinib -0.002 | [6] 0.034 | [7] -0.023 | [8] 0.007 | [9] 0.039 | entinostat -0.008 | vorinostat -0.014 | citarinostat 0.034 | silmitasertib -0.036 | [10] 0.052 | [11] -0.03

FAM118B (UniProt Q9BPY3)
inactive: bafetinib -0.083 | [1] 0.028 | nilotinib -0.114 | [2] -0.106 | [3] 0.022 | [4] 0.014 | [5] 0.02 | tipifarnib -0.083 | mubritinib 0.015 | [6] -0.034 | [7] -0.118 | [9] -0.027 | entinostat 0.047 | vorinostat 0.064 | citarinostat 0.052 | silmitasertib -0.082 | [10] -0.13 | [11] -0.078
active: [8] -0.381

Reprinted at random: 2 records from the list
FAM118B (UniProt Q9BPY3)
inactive: bafetinib -0.083 | [1] 0.028 | nilotinib -0.114 | [2] -0.106 | [3] 0.022 | [4] 0.014 | [5] 0.02 | tipifarnib -0.083 | mubritinib 0.015 | [6] -0.034 | [7] -0.118 | [9] -0.027 | entinostat 0.047 | vorinostat 0.064 | citarinostat 0.052 | silmitasertib -0.082 | [10] -0.13 | [11] -0.078
active: [8] -0.381

EXOSC5 (UniProt Q9NQT4)
inactive: bafetinib 0.012 | [1] -0.08 | nilotinib 0.007 | [2] 0.037 | dasatinib 0.016 | [3] -0.013 | [4] 0.014 | [5] -0.015 | tipifarnib -0.01 | mubritinib -0.002 | [6] 0.034 | [7] -0.023 | [8] 0.007 | [9] 0.039 | entinostat -0.008 | vorinostat -0.014 | citarinostat 0.034 | silmitasertib -0.036 | [10] 0.052 | [11] -0.03

Following part:

EPCAM (UniProt P16422)
inactive: bafetinib -0.035 | [1] -0.015 | nilotinib 0.042 | [2] 0.004 | dasatinib 0.058 | [3] 0.025 | [4] 0.085 | [5] -0.066 | tipifarnib 0.005 | mubritinib 0.025 | [6] -0.072 | [7] 0.067 | [8] -0.107 | [9] 0.032 | entinostat -0.016 | vorinostat 0.066 | citarinostat 0.061 | silmitasertib -0.066 | [10] -0.008 | [11] -0.039

ERLEC1 (UniProt Q96DZ1)
inactive: bafetinib -0.011 | [1] -0.073 | nilotinib -0.01 | [2] -0.019 | dasatinib 0.003 | [3] -0.017 | [4] -0.049 | [5] 0.003 | tipifarnib 0.046 | mubritinib -0.024 | [6] -0.079 | [7] -0.025 | [8] -0.058 | [9] -0.01 | entinostat 0.006 | vorinostat -0.054 | citarinostat 0.001 | silmitasertib 0.063 | [10] -0.021 | [11] -0.03

ERLIN2 (UniProt O94905)
inactive: bafetinib 0.039 | [1] 0.032 | nilotinib -0.107 | [2] 0.012 | dasatinib -0.023 | [3] 0.023 | [4] -0.104 | [5] 0 | tipifarnib 0.024 | mubritinib -0.049 | [6] 0.04 | [7] -0.047 | [8] -0.01 | [9] -0.062 | entinostat 0.032 | vorinostat 0.048 | citarinostat 0.011 | silmitasertib 0.002 | [10] 0.069 | [11] -0.044

EXOC7 (UniProt Q9UPT5)
inactive: bafetinib -0.026 | [1] 0.014 | nilotinib -0.046 | [2] -0.139 | dasatinib -0.234 | [3] -0.035 | [4] 0.002 | [5] 0 | tipifarnib -0.089 | mubritinib -0.011 | [6] 0.009 | [7] -0.142 | [8] -0.223 | [9] -0.022 | entinostat 0.04 | vorinostat 0.09 | citarinostat 0.077 | silmitasertib 0.052 | [10] 0.028 | [11] -0.012

ESS2 (UniProt Q96DF8)
inactive: bafetinib -0.186 | [1] -0.07 | nilotinib 0.013 | [2] -0.048 | dasatinib 0.011 | [3] 0.019 | [4] -0.061 | [5] -0.081 | tipifarnib 0.038 | mubritinib 0.008 | [6] 0.036 | [7] 0.048 | [8] -0.078 | [9] 0.069 | entinostat -0.027 | vorinostat -0.012 | citarinostat 0.014 | silmitasertib 0.04 | [10] 0.033 | [11] -0.017

EXTL2 (UniProt Q9UBQ6)
inactive: bafetinib -0.041 | [1] 0.021 | nilotinib -0.02 | [2] 0.006 | dasatinib -0.008 | [3] -0.059 | [4] -0.039 | [5] -0.064 | tipifarnib 0.014 | mubritinib 0.029 | [6] -0.051 | [7] -0.033 | [8] -0.018 | [9] 0.039 | entinostat -0.01 | vorinostat 0.019 | citarinostat -0.044 | silmitasertib -0.011 | [10] 0.003 | [11] -0.223

ERP29 (UniProt P30040)
inactive: bafetinib -0.038 | [1] -0.014 | nilotinib 0.037 | [2] 0.018 | dasatinib 0.013 | [3] -0.022 | [4] -0.002 | [5] 0.004 | tipifarnib 0.049 | mubritinib -0.031 | [6] -0.015 | [7] 0.012 | [8] 0.01 | [9] 0.04 | entinostat -0.006 | vorinostat 0.008 | citarinostat 0.04 | silmitasertib -0.032 | [10] -0.034 | [11] -0.039

ESYT1 isoform 2 (UniProt Q9BSJ8)
inactive: bafetinib 0.112 | [1] 0.137 | nilotinib -0.088 | [2] -0.208 | dasatinib -0.147 | [3] 0.022 | [4] -0.059 | [5] -0.06 | tipifarnib 0.007 | mubritinib -0.092 | [6] 0.062 | [7] 0.004 | [8] -0.004 | [9] -0.044 | entinostat 0.086 | vorinostat 0.122 | citarinostat 0.033 | silmitasertib 0.041 | [10] 0.187 | [11] -0.048

FAM114A2 (UniProt Q9NRY5)
inactive: bafetinib -0.094 | [1] 0.025 | nilotinib -0.035 | [2] -0.032 | dasatinib -0.083 | [3] 0.004 | [4] 0.001 | [5] 0.019 | tipifarnib -0.002 | mubritinib 0.055 | [6] 0.023 | [7] -0.089 | [8] -0.151 | [9] -0.062 | entinostat 0.051 | vorinostat 0.034 | citarinostat 0.05 | silmitasertib 0.02 | [10] -0.016 | [11] -0.013

ERCC8 (UniProt Q13216)
inactive: bafetinib 0.088 | [1] 0.017 | nilotinib 0.055 | [2] -0.016 | dasatinib 0.014 | [3] -0.103 | [4] -0.034 | [5] 0.041 | tipifarnib 0.231 | mubritinib -0.004 | [6] -0.012 | [7] 0.036 | [8] 0.025 | [9] -0.046 | entinostat 0 | vorinostat 0.035 | citarinostat 0.136 | silmitasertib 0.017 | [11] -0.144
